Measurements as given in patent US20210024498A1, “TETRAHYDROPYRROLE COMPOUND, PREPARATION METHOD THEREFOR, PHARMACEUTICAL COMPOSITION CONTAINING SAME, AND USE THEREOF” (MEDICONNS (SHANGHAI) BIOPHARMACEUTICAL CO., LTD, priority 2017, published 2021).

Chains of the proteins cited; added tags and fusions are not shown.
UniProt Q01959, whole entry, species assumed: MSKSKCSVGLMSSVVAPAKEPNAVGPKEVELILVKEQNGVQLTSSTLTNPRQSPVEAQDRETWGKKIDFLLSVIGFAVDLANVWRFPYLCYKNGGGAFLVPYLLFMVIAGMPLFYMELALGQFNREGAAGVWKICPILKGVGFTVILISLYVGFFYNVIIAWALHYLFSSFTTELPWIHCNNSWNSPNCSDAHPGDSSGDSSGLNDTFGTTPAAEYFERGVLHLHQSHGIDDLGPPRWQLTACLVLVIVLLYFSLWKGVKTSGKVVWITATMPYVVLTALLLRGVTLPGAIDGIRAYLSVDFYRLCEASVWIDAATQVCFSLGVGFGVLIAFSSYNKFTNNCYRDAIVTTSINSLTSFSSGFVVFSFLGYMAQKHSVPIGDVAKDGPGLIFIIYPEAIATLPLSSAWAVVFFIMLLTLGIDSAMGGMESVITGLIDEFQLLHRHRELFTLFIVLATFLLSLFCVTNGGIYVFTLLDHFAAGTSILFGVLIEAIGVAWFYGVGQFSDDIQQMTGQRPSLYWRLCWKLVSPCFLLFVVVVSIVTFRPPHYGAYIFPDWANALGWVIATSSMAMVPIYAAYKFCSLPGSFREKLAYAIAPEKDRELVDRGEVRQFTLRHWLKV

Target: DAT (Homo sapiens, UniProt Q01959)
Experiment: DAT transporter assay (neurotransmitter transporter absorption assay)
Type: cell-based
Method: Bioactivity Test • I. D2 receptor affinity assay: The affinity of the compound to D2 receptor was determined by radioligand competition assay, and the cloned D2 receptor was expressed in HEK293 cell line. • II. D2 receptor function assay: The ability of the compound to antagonize the D2 receptor was determined using a calcium mobilization assay (FLIPR). • III. DAT receptor function assay: The ability of the compound to inhibit DAT was determined by neurotransmitter transporter absorption assay.
• HBSS1×, REPES 20 mM, BSA 0.1%.
• Lyophilized fluorescent dye 1 vial, Assay buffer 10 mL.
• BTCP—hydrochloride (Sigma)
• i) The medium was preheated in 37° C. water bath in advance for more than 30 minutes for later use. • j) The preheated medium was taken out, disinfected with 75% alcohol, and put into a biosafety cabinet. • k) The cultured cells were taken out from the […], and the medium was removed by a vacuum pump. 1× DPBS was added, incubated for a moment, and then removed by a vacuum pump. Appropriate amount of 0.05% trypsin-EDTA was added for cell digestion. The digestion was terminated by 10% FBS medium, and the cells were pipetted and dispersed. • l) The dispersed cells were transferred into a 50 mL centrifuge tube with a pipette. […]

With `O=C1CCc2ccc(OCCCCN3CCN(c4cccc(Cl)c4Cl)CC3)cc2N1` [Aripiprazole, reference compound] the IC50 was > 10 µM.
